Results are given in words; binding and its absence hold for the method and conditions named. Some results given as binding are weak or reduced against the parent protein; the word gives no strength. For part of these data: Tags and fused reporters may be left off the sequences shown.
Tests used:
[1] = biological target: T1, fusion protein comprising the amino acid sequence shown in SEQ ID NO: 23 added to the C-terminal of MBP (human); assay: dot blot of an E. coli lysate expressing the MBP fusion
T1 sequence: LFNAPLPT

[2] = biological target: T2, peptide #66 of the human ADAM28s peptide array (…) (human); assay: peptide array, HRP-labeled antibody
T2 sequence (peptide): CLFNAPLPTDII

[3] = biological target: T3, peptide #65 of the human ADAM28s peptide array (…) (human); assay: peptide array, HRP-labeled antibody
T3 sequence (peptide): LSNCLFNAPLPT

[4] = biological target: T4, human ADAM28 recombinant protein (rhADAM28), full length (human) (UniProt Q9UKQ2); assay: selected by ELISA using rhADAM28; immunoblotting of recombinant human ADAM28
T4 sequence (looked up): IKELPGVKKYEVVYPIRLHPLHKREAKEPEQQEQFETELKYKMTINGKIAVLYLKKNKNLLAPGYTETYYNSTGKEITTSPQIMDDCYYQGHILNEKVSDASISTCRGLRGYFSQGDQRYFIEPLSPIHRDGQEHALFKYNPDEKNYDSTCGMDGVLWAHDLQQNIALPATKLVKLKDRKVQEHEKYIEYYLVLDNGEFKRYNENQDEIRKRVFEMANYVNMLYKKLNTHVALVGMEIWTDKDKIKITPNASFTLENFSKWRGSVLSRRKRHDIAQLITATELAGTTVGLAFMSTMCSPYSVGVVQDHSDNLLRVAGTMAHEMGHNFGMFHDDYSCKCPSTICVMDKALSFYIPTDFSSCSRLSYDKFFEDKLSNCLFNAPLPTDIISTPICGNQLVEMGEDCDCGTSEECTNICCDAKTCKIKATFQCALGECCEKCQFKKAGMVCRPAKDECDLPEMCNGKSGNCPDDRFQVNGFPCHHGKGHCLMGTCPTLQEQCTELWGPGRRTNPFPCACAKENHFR

[5] = biological target: T5, fusion protein of region 517-526 of human ADAM28s added to the C-terminal of MBP (human); assay: Western blotting of MBP fusion proteins
T5 sequence: TELWGPGRRT

[6] = biological target: T6, fusion protein of region 511-530 of human ADAM28s added to the C-terminal of MBP (human); assay: Western blotting of MBP fusion proteins
T6 sequence: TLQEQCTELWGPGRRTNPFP

Measured: binding

B1: mouse anti-human ADAM28 monoclonal antibody 297-2F3 (antibody, V domains shown)
VH: EVKLEESGGGLVQPGGSMKLSCAASGFTFSDAWMDWVRQSPEKGLEWVAEIRSKANNHAIYYAESVKGRFTISRDDSKSSVYLQMNNLRAEDTGIYYCTGFAYWGQGTLVTVSA
VL: DVVMTQTPLSLPVSLGDKASISCRSSQSLVLSNGNTYLNWYLQKPGQSPKLLIYKISARFSGVPDRFSGSGSGTDFTLRISRVEAEDLGVYFCSQTAHVPWTFGGGTKLEIKR
binds: [1] | [2] | [3] | [4]

B2: anti-human ADAM28 human antibody 211-14 (antibody, V domains shown)
VH: QVQLQQSGPGLVKPSQTLSLTCAISGDSVSSNTAAWGWIRQSPGRGLEWLGVIYYRSKWYNDYAVSVKSRITINPDTSKNQFSLQLNSVTPEDTAVYYCARYKESIPEYGFDFWGQGTLVTVSS
VL: DIVMTQSPLSLPVTPGEPASISCRSSQSLLYSNGYIYLNWYLQKPGQSPQLLIYLGSNRASGVPDRFSGSGSGTDFTLKISRVEAEDVGVYYCFQYGGSPLTFGQGTKVEIKR
notes: Clone from the HuCAL GOLD phage library, first made as Fab, then converted to IgG (heavy chain constant region IgG1)
binds: [5] | [6]

— patent US20150274840A1 (GENEFRONTIER, published 2015)
